Measured values from US10076576B2 (priority 2012, dated 2018).
* marks the point of attachment. Fmoc = O=C(OCC1c2ccccc2-c2ccccc21)*

Test: general procedure: Fmoc solid-phase peptide synthesis; Fmoc-Leu-Wang resin (also Fmoc-Gly-Wang, Fmoc-Phe-Wang); 2-(6-chloro-1H-benzotriazole-1-yl)-1,1,3,3-tetramethyluronium hexafluorophosphat
Conditions: whole synthesis, 214 nm, scale of the general procedure 5 g resin

Substance | crude HPLC purity [%]
Fmoc-ALAF-OH | 90
Fmoc-ALAL-OH | 90
Fmoc-ALPF-OH | 98
